# Measured values from publication PMC12120773, “SIRT4 Promotes Pancreatic Cancer Stemness by Enhancing Histone Lactylation and Epigenetic Reprogramming Stimulated by Calcium Signaling” (Advanced Science, 2025).
# The chains behind the UniProt entries cited, without tags or fusion partners.
# UniProt P06733: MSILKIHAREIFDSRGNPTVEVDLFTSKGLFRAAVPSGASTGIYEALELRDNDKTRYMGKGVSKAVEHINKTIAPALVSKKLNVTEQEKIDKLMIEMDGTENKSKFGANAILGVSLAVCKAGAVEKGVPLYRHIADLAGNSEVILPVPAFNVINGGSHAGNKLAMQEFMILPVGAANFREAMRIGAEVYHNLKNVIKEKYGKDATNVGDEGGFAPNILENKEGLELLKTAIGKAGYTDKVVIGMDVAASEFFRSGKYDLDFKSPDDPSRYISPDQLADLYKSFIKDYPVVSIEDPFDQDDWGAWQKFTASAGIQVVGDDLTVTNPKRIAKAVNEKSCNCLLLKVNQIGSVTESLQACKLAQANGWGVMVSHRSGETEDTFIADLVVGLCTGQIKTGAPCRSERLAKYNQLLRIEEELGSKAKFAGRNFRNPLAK
# These are yes or no findings as the source states them, for the method shown. In cells and extracts the contact can be indirect. Some entries that bind do so weakly or less than the wild type. For some of these results: Sequences can lack the tags named with a protein.
# T1: SIRT4‐HA (human) (UniProt Q9Y6E7)
# T1 sequence: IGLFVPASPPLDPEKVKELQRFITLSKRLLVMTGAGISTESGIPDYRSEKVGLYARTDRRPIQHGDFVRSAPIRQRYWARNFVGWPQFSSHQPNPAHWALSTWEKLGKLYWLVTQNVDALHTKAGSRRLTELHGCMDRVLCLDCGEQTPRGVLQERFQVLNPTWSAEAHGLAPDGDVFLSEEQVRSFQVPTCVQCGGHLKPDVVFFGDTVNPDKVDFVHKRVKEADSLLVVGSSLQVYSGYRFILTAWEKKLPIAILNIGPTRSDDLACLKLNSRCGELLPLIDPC
# T2: SIRT4, endogenous in PANC‐1 (human (endogenous in PANC‐1)) (UniProt Q9Y6E7)
# T2 sequence: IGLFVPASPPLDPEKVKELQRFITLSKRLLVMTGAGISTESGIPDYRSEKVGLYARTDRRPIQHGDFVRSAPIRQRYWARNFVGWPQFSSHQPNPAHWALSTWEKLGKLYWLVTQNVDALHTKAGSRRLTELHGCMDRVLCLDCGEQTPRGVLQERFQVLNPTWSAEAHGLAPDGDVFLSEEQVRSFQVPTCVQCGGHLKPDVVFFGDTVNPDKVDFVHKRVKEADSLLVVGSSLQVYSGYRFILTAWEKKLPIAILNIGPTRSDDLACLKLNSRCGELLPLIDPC
# Assays:
# SIRT4‐HA (human) = target: T1, SIRT4‐HA (human); experiment: co-IP; 293FT (legend: HEK293T) cells co‐transfected with SIRT4‐HA and ENO1‐FLAG; lysis in 1% NP‐40 buffer (50 mM Tris‐HCl pH 7.4, 150 mM NaCl, 5 mM EDTA); Anti‐FLAG or Anti‐HA Affinity Gel for 4–6 h at 4 °C; Western blot
# [1] = target: T2, SIRT4, endogenous in PANC‐1 (human (endogenous in PANC‐1)); experiment: co-IP; endogenous proteins in PANC‐1 extracts; 5 µg antibody against SIRT4 or ENO1, or control IgG, on Protein A/G Sepharose; overnight at 4 °C; immunoblot
# ENO1‐FLAG = ENO1‐FLAG (UniProt P06733); experiment: co-IP; 293FT (legend: HEK293T) cells co‐transfected with SIRT4‐HA and ENO1‐FLAG; lysis in 1% NP‐40 buffer (50 mM Tris‐HCl pH 7.4, 150 mM NaCl, 5 mM EDTA); Anti‐FLAG or Anti‐HA Affinity Gel for 4–6 h at 4 °C; Western blot
# [2] = target: Enolase 1 (ENO1), endogenous in PANC‐1 (human (endogenous in PANC‐1)) (UniProt P06733); experiment: co-IP; endogenous proteins in PANC‐1 extracts; 5 µg antibody against SIRT4 or ENO1, or control IgG, on Protein A/G Sepharose; overnight at 4 °C; immunoblot
molecule,measurement,setting,value
ENO1‐FLAG (from UniProt P06733 1-434) (enzyme),binding,SIRT4‐HA (human),binds
"Enolase 1 (ENO1), endogenous in PANC‐1 (from UniProt P06733 1-434) (enzyme)",binding,[1],binds
"SIRT4‐HA (enzyme, UniProt Q9Y6E7 29-314) IGLFVPASPPLDPEKVKELQRFITLSKRLLVMTGAGISTESGIPDYRSEKVGLYARTDRRPIQHGDFVRSAPIRQRYWARNFVGWPQFSSHQPNPAHWALSTWEKLGKLYWLVTQNVDALHTKAGSRRLTELHGCMDRVLCLDCGEQTPRGVLQERFQVLNPTWSAEAHGLAPDGDVFLSEEQVRSFQVPTCVQCGGHLKPDVVFFGDTVNPDKVDFVHKRVKEADSLLVVGSSLQVYSGYRFILTAWEKKLPIAILNIGPTRSDDLACLKLNSRCGELLPLIDPC",binding,ENO1‐FLAG,binds
"SIRT4, endogenous in PANC‐1 (enzyme, UniProt Q9Y6E7 29-314) IGLFVPASPPLDPEKVKELQRFITLSKRLLVMTGAGISTESGIPDYRSEKVGLYARTDRRPIQHGDFVRSAPIRQRYWARNFVGWPQFSSHQPNPAHWALSTWEKLGKLYWLVTQNVDALHTKAGSRRLTELHGCMDRVLCLDCGEQTPRGVLQERFQVLNPTWSAEAHGLAPDGDVFLSEEQVRSFQVPTCVQCGGHLKPDVVFFGDTVNPDKVDFVHKRVKEADSLLVVGSSLQVYSGYRFILTAWEKKLPIAILNIGPTRSDDLACLKLNSRCGELLPLIDPC",binding,[2],binds
